According to paper PMC3717276, “Optimization and validation of mitochondria-based functional assay as a useful tool to identify BH3-like molecules selectively targeting anti-apoptotic Bcl-2 proteins” (BMC Biotechnology, 2013):
Results are given in words; binding and its absence hold for the method and conditions named.

By UniProt entry, the sequences of proteins in these tests, tags left out. Where a name states a change or a piece, a line headed by the entry shows the natural chain unless it says otherwise. Chains listed by the source or under a name are the forms on record and can include a tag or linker. Residues count along the entry.
Human Bcl-xL protein with internal deletion of 45-85 and C-terminal truncation of 212-233, N-terminal 8xHis tagged (Q07817, form named): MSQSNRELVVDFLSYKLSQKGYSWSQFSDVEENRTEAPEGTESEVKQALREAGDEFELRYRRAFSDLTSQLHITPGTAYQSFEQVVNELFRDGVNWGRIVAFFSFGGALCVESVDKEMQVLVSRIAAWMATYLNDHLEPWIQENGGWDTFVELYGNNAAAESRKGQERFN
UniProt Q07820, residues 171-327: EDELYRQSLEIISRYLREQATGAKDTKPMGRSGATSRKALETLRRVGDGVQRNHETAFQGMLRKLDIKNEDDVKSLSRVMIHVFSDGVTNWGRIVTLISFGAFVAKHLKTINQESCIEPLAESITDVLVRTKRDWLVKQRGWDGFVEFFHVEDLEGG

How the values were obtained:
[1] = biological target: Human Bcl-xL protein with internal deletion of 45-85 and C-terminal truncation of 212-233, N-terminal 8xHis tagged (human) (UniProt Q07817); test: fluorescence polarisation; competition: 30 nM Bcl-xL and 2.5 nM FAM-Bak, tested BH3 peptide added; 50 mM Tris-Bis, pH 7.4, 0.01% bovine gamma globulin; Ki calculated from IC50; both purified
[2] = biological target: Human Bcl-xL protein with internal deletion of 45-85 and C-terminal truncation of 212-233, N-terminal 8xHis tagged (human) (UniProt Q07817); test: SPR; competitive solution binding: protein (20 nM) pre-incubated with tested BH3 peptide for at least 30 min, injected over immobilised biotin-Bim BH3 peptide; response at 30 s of dissociation; both purified
[3] = biological target: Human Mcl-1 protein, residues 171-327, N-terminal 8xHis tag (human) (UniProt Q07820); test: as above
[4] = biological target: Human Mcl-1 protein, residues 171-327, N-terminal 8xHis tag (human) (UniProt Q07820); test: fluorescence polarisation; competition: Mcl-1 (20 nM) or Bcl-2 (40 nM) pre-incubated with FAM-Bid (2 nM and 2.5 nM), tested BH3 peptide added, 2-3 h; 100 mM potassium phosphate, pH 7.5, 100 ug/ml bovine gamma globulin, 0.02% sodium azide; Ki calculated from IC50; both purified

binding [1] | binding [2] | binding [3] | binding [4] | Binder
no binding (tested: Ki >10000 nM) | no binding (tested: IC50 >30000 nM) |  |  | PAELEVECATQLRRFGDKLNFRQKLL [Noxa BH3 peptide (residues 18-43)]
 |  | no binding (tested: IC50 >30000 nM) | no binding (tested: Ki >20000 nM) | NLWAAQRYGRELRRMSDEFVDSFKKG [Bad BH3 peptide (residues 103-128)]
